In publication PMC3068998:
Like-named read-outs stand apart in the source and are kept apart here. No constants are given. Whether binding was seen depends on the method and setting. In cells and extracts the contact can be indirect. Some results given as binding are weak or reduced against the parent protein; the word gives no strength.

Sequences of proteins named here, by UniProt entry; tags and fusion partners are left off. Residues count along the entry.
UniProt Q00496, residues 820-1251: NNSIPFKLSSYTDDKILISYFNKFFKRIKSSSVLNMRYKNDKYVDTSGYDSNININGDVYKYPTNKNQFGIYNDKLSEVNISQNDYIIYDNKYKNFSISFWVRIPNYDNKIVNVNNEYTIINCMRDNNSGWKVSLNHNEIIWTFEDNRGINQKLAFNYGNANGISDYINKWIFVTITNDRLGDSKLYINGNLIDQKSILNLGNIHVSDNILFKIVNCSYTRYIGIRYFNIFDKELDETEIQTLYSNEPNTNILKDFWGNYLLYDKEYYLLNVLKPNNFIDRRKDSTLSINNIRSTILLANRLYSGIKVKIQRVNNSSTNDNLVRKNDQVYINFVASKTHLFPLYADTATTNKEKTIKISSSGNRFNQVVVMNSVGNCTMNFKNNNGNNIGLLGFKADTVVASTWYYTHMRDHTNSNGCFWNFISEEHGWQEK
UniProt P19321, residues 859-1276: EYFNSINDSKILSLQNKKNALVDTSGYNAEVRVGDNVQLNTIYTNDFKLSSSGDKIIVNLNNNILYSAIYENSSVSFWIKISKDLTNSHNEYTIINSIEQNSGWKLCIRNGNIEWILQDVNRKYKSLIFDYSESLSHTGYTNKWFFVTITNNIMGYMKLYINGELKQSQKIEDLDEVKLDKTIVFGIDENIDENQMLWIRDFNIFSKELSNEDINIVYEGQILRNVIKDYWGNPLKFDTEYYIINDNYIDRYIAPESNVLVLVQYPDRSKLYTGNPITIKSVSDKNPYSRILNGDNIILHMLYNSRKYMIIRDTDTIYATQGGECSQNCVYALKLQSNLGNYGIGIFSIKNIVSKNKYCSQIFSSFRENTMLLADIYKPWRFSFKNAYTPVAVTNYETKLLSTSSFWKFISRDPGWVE
UniProt Q02563: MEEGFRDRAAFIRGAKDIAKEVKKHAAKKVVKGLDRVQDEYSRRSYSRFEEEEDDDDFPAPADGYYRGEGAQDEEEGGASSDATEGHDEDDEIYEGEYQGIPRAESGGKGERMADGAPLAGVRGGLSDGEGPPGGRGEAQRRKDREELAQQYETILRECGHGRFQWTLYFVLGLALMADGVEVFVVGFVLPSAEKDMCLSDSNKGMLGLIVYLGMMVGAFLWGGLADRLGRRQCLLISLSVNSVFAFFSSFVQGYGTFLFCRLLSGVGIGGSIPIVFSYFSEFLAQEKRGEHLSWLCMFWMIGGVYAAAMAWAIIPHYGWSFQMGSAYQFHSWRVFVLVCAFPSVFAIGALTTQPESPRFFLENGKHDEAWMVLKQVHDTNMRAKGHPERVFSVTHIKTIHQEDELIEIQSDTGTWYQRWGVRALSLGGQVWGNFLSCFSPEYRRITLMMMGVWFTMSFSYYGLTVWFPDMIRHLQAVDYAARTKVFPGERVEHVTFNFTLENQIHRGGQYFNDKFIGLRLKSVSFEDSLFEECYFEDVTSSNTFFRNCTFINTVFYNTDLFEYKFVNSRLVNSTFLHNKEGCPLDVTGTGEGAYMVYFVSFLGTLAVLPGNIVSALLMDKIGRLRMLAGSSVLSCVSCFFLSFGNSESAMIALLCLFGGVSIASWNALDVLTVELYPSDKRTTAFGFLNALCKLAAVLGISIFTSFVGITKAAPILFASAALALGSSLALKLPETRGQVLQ
UniProt Q63564: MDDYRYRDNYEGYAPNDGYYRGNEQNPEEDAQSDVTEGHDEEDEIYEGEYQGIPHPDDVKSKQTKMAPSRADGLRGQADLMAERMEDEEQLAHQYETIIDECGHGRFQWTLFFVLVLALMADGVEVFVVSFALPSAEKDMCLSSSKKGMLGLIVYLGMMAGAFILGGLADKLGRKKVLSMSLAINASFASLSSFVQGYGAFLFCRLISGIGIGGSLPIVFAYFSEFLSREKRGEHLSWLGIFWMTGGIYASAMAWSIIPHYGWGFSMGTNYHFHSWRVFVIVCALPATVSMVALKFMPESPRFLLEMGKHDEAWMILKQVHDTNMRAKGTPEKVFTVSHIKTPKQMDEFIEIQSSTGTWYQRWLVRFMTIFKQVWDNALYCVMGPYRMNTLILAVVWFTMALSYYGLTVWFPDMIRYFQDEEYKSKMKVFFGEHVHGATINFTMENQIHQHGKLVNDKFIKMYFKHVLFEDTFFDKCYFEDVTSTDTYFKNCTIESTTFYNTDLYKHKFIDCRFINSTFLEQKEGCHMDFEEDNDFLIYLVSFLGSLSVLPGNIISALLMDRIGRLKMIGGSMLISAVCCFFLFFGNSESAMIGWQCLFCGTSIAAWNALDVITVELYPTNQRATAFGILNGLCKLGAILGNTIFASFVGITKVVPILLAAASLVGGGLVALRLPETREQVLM
UniProt P07825: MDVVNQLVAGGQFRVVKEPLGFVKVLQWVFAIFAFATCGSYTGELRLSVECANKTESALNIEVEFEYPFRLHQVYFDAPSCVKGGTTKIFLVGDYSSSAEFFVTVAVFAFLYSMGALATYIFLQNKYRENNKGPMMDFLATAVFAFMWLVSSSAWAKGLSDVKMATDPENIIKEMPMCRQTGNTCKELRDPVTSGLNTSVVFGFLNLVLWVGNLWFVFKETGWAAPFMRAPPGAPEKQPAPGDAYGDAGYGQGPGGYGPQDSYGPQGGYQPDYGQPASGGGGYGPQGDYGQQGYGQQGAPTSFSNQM

Assays:
Test in all cases: pull-down; only the target purified
[1] = target: GST-fusion HCR of BoNT/E (BoNT/E-HCR) (UniProt Q00496)
[2] = target: GST-fusion receptor binding domain of BoNT/D (BoNT/D-HCR) (UniProt P19321)
[3] = target: GST-fusion receptor binding domain of BoNT/D (BoNT/D-HCR) (UniProt P19321); remark: listed apart in the source
[4] = target: GST-fusion HCR of BoNT/E (BoNT/E-HCR) (UniProt Q00496); remark: listed apart in the source

Molecule: SV2A (endogenous, rat brain) (from UniProt Q02563 1-742)
- binding [1]: binds

Molecule: SV2B (endogenous, rat brain) (from UniProt Q63564 1-683)
- binding [2]: binds
- binding [1]: no binding

Molecule: synaptophysin (endogenous, rat brain) (from UniProt P07825 1-307)
- binding [2]: no binding
- binding [1]: no binding

B1: synaptogyrin I (endogenous, rat brain) (protein, UniProt Q62876 1-234)
chain: MEGGAYGAGKAGGAFDPYTLVRQPHTILRVVSWVFSIVVFGSIVNEGYLNNPEEEEEFCIYNRNPNACSYGVTVGVLAFLTCLVYLALDVYFPQISSVKDRKKAVLSDIGVSAFWAFFWFVGFCFLANQWQVSKPKDNPLNEGTDAARAAIAFSFFSIFTWAGQAVLAFQRYQIGADSALFSQDYMDPSQDSSMPYAPYVEPSAGSDPTGMGGTYQHPANAFDAEPQGYQSQGY
- binding [3]: no binding
- binding [4]: no binding
